Reference: patent US20230123488A1, “STABLE TOPICAL TETRACYCLINE COMPOSITIONS” (VYNE THERAPEUTICS INC., priority 2017, published 2023)
At least one structure is not confirmed: it was looked up by name or label, or the drawing left a doubt.

Experiments:
[1] = Accelerated doxycycline stability in various solvents (70° C., 14 hours, UPLC); type: physicochemical; settings: 70° C. for 14 hours
[2] = Chemical stability: DOX assay and degradants (4-epi, 6-epi) by UPLC; type: physicochemical; settings: 2.33 w/w% doxycycline hyclate in glycerin (composition 1), FIG. 7
[3] = in 1, 3 propane-di-ol, approx. 5.89 %w/w doxycycline, normalized
[4] = in Dimethyl isosorbide, approx. 1.80 %w/w doxycycline, normalized
[5] = in Dimethyl sulfoxide, approx. 9.99 %w/w doxycycline, normalized
[6] = in Ethanol, approx. 1.50 %w/w doxycycline, normalized
[7] = in Glycerin, approx. 8.00 %w/w doxycycline, normalized
[8] = in Hexylene glycol, approx. 2.50 %w/w doxycycline, normalized
[9] = in Isopropanol, approx. 0.70 %w/w doxycycline, normalized
[10] = in Oleyl alcohol, approx. 0.15 %w/w doxycycline, normalized
[11] = in Propylene carbonate, approx. 0.35 %w/w doxycycline, normalized
[12] = in Propylene glycol, approx. 15.00 %w/w doxycycline, normalized
[13] = in Transcutol, approx. 7.00 %w/w doxycycline, normalized

In the case of C[C@H]1c2cccc(O)c2C(=O)C2=C(O)[C@]3(O)C(=O)C(C(N)=O)=C(O)[C@@H](N(C)C)[C@@H]3[C@@H](O)[C@@H]21 [doxycycline, Doxycycline], the 4-Epi [1, 3] is reported as 0.14%, the 6-Epi [1, 3] is reported as 0.04% and the “Total % of impurities after temperature challenge” value (from here on “Total % of impurities”) [1, 3] is reported as 0.19%. For the same molecule, the 4-Epi [1, 4] was 8.43%, the 6-Epi [1, 4] was 1.85% and the “Total % of impurities” value ([1]; in Dimethyl isosorbide, approx. 1.80 %w/w doxycycline, normalized to initial doxycycline content) was 23.27%. For the same molecule, the 4-Epi [1, 5] was 1.35%, the 6-Epi [1, 5] was 0.06% and the “Total % of impurities” value [1, 5] was 1.42%. For the same molecule, the 4-Epi [1, 6] was 2.03%, the 6-Epi [1, 6] was 0.69% and the “Total % of impurities” value [1, 6] was 0.13%. For the same molecule, the 4-Epi [1, 7] was 2.04%, the 6-Epi [1, 7] was 0.54% and the 4-Epi [1, 8] was 6.40%. For the same molecule, the 6-Epi [1, 8] was 2.36%, the “Total % of impurities” value [1, 8] was 4.11% and the 4-Epi [1, 9] was 1.62%. For the same molecule, the 6-Epi [1, 9] was 0.70%, the “Total % of impurities” value [1, 9] was 0.10% and the 4-Epi [1, 10] was 4.89%. For the same molecule, the 6-Epi [1, 10] was 0.56%, the “Total % of impurities” value [1, 10] was 1.29% and the 4-Epi [1, 11] was 9.31%. The 6-Epi [1, 11] was 0.95%, the “Total % of impurities” value [1, 11] was 0.62% and the 4-Epi [1, 12] was 2.04%. The 6-Epi [1, 12] was 0.54%, the 4-Epi [1, 13] was 4.21% and the 6-Epi [1, 13] was 0.58%. The “Total % of impurities” value [1, 13] was 0.11%, the “Average 4-epi product formation (doxycycline breakdown rate)” value ([2]; 25° C.) was “about 0.09 % per month” and the “Average 4-epi product formation (doxycycline breakdown rate)” value ([2]; 40° C.) was 0.72 % per month.
